No constants are given. Whether binding was seen depends on the method and setting. Some results given as binding are weak or reduced against the parent protein; the word gives no strength.
Experiments:
[1] = target: cynomolgus macaque HER3 (cynomolgus macaque) (UniProt G7PIG5); assay: ELISA, plate coated with 0.1 ug/ml cynomolgus HER3, antibody titrated, absorbance 450 nm
[2] = target: cynomolgus macaque HER3 (cynomolgus macaque) (UniProt G7PIG5); assay: ELISA, plate coated with 0.1 µg/ml target, antibody titrated from 10 µg/ml
[3] = target: human HER3 expressed on cells (HEK293 HER3 O/E cells) (human) (UniProt P21860); assay: flow cytometry on HEK293 cells overexpressing human HER3, 20 µg/ml antibody
human HER2 (human) [4] = target: human HER2 (human) (UniProt P04626); assay: ELISA, plate coated with 0.1 ug/ml human HER2, antibody titrated, absorbance 450 nm
[5] = target: His-tagged human HER3 (human) (UniProt P21860); assay: BLI (Octet QK384), antibody on anti-human IgG capture tips, His-tagged human HER3 in solution
rat HER3 (rat) [6] = target: rat HER3 (rat) (UniProt Q62799); assay: ELISA, plate coated with 0.1 ug/ml rat HER3, antibody titrated, absorbance 450 nm
[7] = target: human HER3 expressed on cells (HEK293 HER3 O/E cells) (human) (UniProt P21860); assay: flow cytometry, HEK293 cells overexpressing human HER3, 20 ug/ml antibody, FITC anti-Fc secondary
human EGFR (human) [8] = target: human EGFR (human) (UniProt P00533); assay: ELISA, plate coated with 0.1 ug/ml human EGFR, antibody titrated, absorbance 450 nm
human EGFR (human) [9] = target: human EGFR (human) (UniProt P00533); assay: ELISA, plate coated with 0.1 µg/ml target, antibody titrated from 10 µg/ml
rat HER3 (rat) [10] = target: rat HER3 (rat) (UniProt Q62799); assay: as above
human HER2 (human) [11] = target: human HER2 (human) (UniProt P04626); assay: as above
mouse HER3 (mouse) [12] = target: mouse HER3 (mouse) (UniProt Q61526); assay: as above
mouse HER3 (mouse) [13] = target: mouse HER3 (mouse) (UniProt Q61526); assay: ELISA, plate coated with 0.1 ug/ml mouse HER3, antibody titrated, absorbance 450 nm
[14] = target: human HER3 polypeptide (human) (UniProt P21860); assay: ELISA, plate coated with 0.1 ug/ml human HER3, antibody titrated, absorbance 450 nm

Chains of the proteins cited; added tags and fusions are not shown. Lines headed by an entry give the natural chain unless they say otherwise; changes in a name come on top. A line that says so, or that is headed by a name, gives the form on record, which may keep a tag or linker. Residues count along the entry.
cynomolgus macaque HER3 (G7PIG5, form named): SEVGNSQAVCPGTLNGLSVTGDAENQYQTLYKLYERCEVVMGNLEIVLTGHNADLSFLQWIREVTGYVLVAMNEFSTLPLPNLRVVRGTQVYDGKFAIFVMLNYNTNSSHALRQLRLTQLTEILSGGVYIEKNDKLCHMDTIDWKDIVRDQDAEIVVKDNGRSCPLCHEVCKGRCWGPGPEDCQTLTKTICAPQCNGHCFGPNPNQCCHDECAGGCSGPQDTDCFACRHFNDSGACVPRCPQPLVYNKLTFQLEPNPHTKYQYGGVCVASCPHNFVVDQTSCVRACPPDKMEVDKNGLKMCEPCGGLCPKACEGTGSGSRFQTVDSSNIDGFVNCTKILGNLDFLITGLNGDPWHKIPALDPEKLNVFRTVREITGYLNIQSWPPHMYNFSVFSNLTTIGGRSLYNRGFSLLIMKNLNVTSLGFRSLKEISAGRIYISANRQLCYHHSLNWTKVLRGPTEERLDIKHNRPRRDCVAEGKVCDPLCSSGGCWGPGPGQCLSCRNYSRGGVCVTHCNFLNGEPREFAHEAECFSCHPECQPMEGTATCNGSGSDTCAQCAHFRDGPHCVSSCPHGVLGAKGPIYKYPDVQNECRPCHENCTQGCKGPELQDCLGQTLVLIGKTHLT
UniProt P21860, residues 20-643: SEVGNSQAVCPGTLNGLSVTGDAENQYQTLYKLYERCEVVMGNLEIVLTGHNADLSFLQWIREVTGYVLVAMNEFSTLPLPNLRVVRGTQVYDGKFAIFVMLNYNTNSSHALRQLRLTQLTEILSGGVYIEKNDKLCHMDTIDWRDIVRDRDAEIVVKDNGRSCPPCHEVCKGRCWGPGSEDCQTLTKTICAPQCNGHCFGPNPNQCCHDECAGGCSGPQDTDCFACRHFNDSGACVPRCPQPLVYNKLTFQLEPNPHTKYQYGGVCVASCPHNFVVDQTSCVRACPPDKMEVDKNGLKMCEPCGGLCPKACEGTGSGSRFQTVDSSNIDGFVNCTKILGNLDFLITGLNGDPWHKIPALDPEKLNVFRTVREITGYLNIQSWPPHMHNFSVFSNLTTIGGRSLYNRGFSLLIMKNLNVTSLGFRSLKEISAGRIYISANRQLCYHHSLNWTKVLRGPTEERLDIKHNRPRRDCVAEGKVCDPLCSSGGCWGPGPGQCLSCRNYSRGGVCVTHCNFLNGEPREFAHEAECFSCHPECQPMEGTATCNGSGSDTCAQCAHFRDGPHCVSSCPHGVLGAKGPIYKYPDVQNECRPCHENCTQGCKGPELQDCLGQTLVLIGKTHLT
UniProt Q62799, residues 20-641: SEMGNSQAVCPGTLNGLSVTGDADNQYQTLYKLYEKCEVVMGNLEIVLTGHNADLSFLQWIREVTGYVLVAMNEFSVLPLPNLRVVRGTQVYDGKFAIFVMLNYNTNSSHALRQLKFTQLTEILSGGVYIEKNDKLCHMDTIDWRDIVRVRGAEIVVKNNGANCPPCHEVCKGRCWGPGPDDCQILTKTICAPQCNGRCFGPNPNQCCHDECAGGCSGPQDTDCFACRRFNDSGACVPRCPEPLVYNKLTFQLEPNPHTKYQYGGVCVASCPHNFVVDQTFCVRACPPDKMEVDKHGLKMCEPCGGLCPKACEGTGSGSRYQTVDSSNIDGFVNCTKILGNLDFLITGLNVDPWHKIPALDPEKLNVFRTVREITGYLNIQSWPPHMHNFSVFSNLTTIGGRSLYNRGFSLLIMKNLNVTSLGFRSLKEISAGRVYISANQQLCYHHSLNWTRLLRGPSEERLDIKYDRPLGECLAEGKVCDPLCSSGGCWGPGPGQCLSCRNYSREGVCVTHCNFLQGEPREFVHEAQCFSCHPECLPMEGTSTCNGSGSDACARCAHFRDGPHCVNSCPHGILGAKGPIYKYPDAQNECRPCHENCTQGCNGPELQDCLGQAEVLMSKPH
UniProt Q61526, residues 20-641: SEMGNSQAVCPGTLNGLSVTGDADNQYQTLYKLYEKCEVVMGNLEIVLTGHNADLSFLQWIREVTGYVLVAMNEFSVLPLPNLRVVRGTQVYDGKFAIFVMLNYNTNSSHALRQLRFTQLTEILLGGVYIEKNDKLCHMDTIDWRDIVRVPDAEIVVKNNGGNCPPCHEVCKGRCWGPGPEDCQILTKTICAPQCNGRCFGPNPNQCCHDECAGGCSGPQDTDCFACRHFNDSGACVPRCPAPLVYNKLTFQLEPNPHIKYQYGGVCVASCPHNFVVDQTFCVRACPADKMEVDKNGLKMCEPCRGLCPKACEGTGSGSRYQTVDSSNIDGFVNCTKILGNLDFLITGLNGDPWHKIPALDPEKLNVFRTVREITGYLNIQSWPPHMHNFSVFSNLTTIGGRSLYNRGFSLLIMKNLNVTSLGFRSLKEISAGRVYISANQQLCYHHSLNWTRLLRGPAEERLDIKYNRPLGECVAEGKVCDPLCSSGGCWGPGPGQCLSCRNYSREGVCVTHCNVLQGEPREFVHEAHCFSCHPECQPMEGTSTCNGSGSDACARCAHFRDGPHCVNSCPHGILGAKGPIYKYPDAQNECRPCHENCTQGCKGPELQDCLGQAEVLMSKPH

Measured: binding

B1: anti-HER3 clone 4-35-B2 IgG1 (antibody, V domains shown)
VH: EIQLQQSGPELVKPGASVKVSCKASGYSFTDYNMYWVKQSHGKSLEWIGHINPYNGGTTYNQKFKGRATLTVDKSSSTAFMHLNSLTSEDSAVYFCVSLRWGAMDYWGQGTSVTVSS
VL: QIVLTQSPALMSASPGEKVTMTCSASSSVSYMYWYQQKPRSSPKPWIYLTSNLASGVPARFSGSGSGTSYSLTISSMEAEDAATYYCQQWNSNPYTFGGGTKLEIKR
binds: [1] | [2]

B2: anti-HER3 clone 4-35-B4 IgG1 (antibody, V domains shown)
VH: EVQLQQSGAELVKPGASVKLSCTASGFNIKDTYIHWVKQRPDQGLEWIGKIIDPANGNTNYDPKFQGKATITADTSSNTAYLQLSSLSSEDTAVYFCARGLHWGQGTTLTVSS
VL: DIVLTQSPASLAVSLGQRATISCRASKSVSTSGYSYMHWYQQKPGQPPKLLIYLASNLESGVPARFSGSGSGTDFTLNIHPVEEEDAATYYCQHSRELPYTFGGGTKLEIKR
binds: all assays above

Source: US20250122303A1, “TREATMENT AND PREVENTION OF CANCER USING HER3 ANTIGEN-BINDING MOLECULES” (Hummingbird Bioscience Pte. Ltd., priority 2021, published 2025)
